Measured values published in patent US8080423B2, “Reagent containing protease reaction promoter and/or colorant stabilizer” (Asahi Kasei Pharma Corporation, priority 2004, dated 2011).
For at least one compound, name, drawing or mass did not settle the structure.

Experiments:
[1] = Screening of stabilizer for colorant, MBTH-TOOS (Example 13); type: physicochemical; conditions: 570 nm, 37° C., additives at conc. (1%; IDA 1 mM; Zn, Al 0.1 mM; ferrocyanide 0.01 mM; sorbitol 5%; DMSO 10%)
[2] = test system: Neutral protease (manufactured by Toyobo Co., Ltd.); test: Screening of protease reaction promoter (Example 1); type: biochemical; conditions: 660 nm
Procedure: 1) R-1: Reagent for Protein Decomposition
2) R-2: Reagent for Glycated Amino Acid Detection
The following substances were independently used as a test sample. Note that concentrations described in parentheses each represent a final concentration of the substance in the reagent R1.
Absorbance before the addition of the reagent R-2 and 5 minutes after the addition was measured at 660 nm. […] The AH-AL shown in Table 1 is a difference obtained by subtracting absorbance AL which was obtained from the primary calibrator at level 2 (5.38%) from absorbance AH which was obtained from the primary calibrator at level 4 (9.88%). Here, if AH-AL is large, the sample is judged to have a protease reaction promoting effect. In particular, when AH-AL is 20 or more, the sample has an excellent promoting effect.

[3] = Screening of stabilizer for colorant, DA64 (Example 13); type: physicochemical; conditions: DA-64, 750 nm, 37° C., additives at conc. (1%; IDA 1 mM; Zn, Al 0.1 mM; ferrocyanide 0.01 mM; sorbitol 5%; DMSO 10%)
Procedure: (§1) The following substances were used as test samples. Note that concentrations described in parentheses each represent a final concentration of the substance in the reagent R-1.
(§2) Tween-20 (1%), Brij35 (1%), Triton X-100 (1%), deoxycholic acid (1%), imino-diacetic acid (IDA; 1 mM), ZnSO4 (0.1 mM), AlCl3 (0.1 mM), potassium ferrocyanate (0.01 mM), sorbitol (5%), glucose (5%), sodium nitrite (2 mM), dimethylsulfoxide (DMSO; 10%) (those substances are manufactured by Wako Pure Chemical Industries, Inc.), 2-hydroxypropyl-β-cyclodextrin (2HP β CD; 0.5%, 2%, 5%) and methyl-β-cyclodextrin (M β CD; 0.5%, 2%, 5%) (those substances are manufactured by Nihon Shokuhin Kako Co., Ltd.).
(§3) 500 μl of the R-1 reagent and 500 μl of the R-2 which had been incubated to 37° C. were mixed. The mixture was incubated to 37° C. for 2 minutes, and absorbance thereof (A0) was measured. The mixture was added with 10 μl of 500 μM hydrogen peroxide or distilled water. The whole was incubated to 37° C., and absorbance exactly 5 minutes after the addition of hydrogen peroxide (A1) was measured, to calculate a change in absorbance ΔA (A1-A0). The absorbance was measured using a wavelength of 750 nm when DA64 was used as the colorant, a wavelength of 660 nm when DA67 was used as the colorant, and a wavelength of 570 nm when 4-AA-TOOS was used as the colorant.
Immediately after the preparation of the reagent, the reagent was preserved at 37° C. for 2 days and 9 days, and measurement of sensitivity of a blank which was distilled water and of hydrogen peroxide was performed.

[4] = Screening of stabilizer for colorant, DA67 (Example 13); type: physicochemical; conditions: DA-67, 660 nm, 37° C., additives at conc. (1%; IDA 1 mM; Zn, Al 0.1 mM; ferrocyanide 0.01 mM; sorbitol 5%; DMSO 10%)
Procedure: as §1, §2
as §3, with “colorant. […]” for “colorant.”

Row | SMILES | blank (distilled water) change in absorbance ([1]; 0 days) [Abs] | blank (distilled water) change in absorbance ([1]; 2 days) [Abs] | AH (absorbance from primary calibrator at level 4 (9.88%)) ([2]; test sample 1% in R-1) | AL (absorbance from primary calibrator at level 2 (5.38%)) ([2]; test sample 1% in R-1) | AH − AL ([2]; test sample 1% in R-1, 20 or more = excellent promoting effect) [mAbs] | blank (distilled water) change in absorbance ([3]; 0 days) [Abs] | blank (distilled water) change in absorbance ([3]; 2 days) [Abs] | blank (distilled water) change in absorbance ([3]; 9 days) [Abs] | blank (distilled water) change in absorbance ([4]; 0 days) [Abs] | blank (distilled water) change in absorbance ([4]; 2 days) [Abs] | AH (absorbance from primary calibrator at level 4 (9.88%)) ([2]; test sample 2 mM in R-1) | AH − AL ([2]; test sample 2 mM in R-1) [mAbs] | AL (absorbance from primary calibrator at level 2 (5.38%)) ([2]; test sample 2 mM in R-1)
1 | C[C@H](CCC(=O)O)[C@H]1CC[C@H]2[C@@H]3CC[C@@H]4C[C@H](O)CC[C@]4(C)[C@H]3C[C@H](O)[C@]12C [Deoxycholic acid, deoxycholic acid, reference compound] | 0.148 | 1.209 | 69.0 | 62.9 | 6.1 | −0.006 | 0.074 | 0.203 | 0.093 | 2.351 |  |  | 
2 | NC(=O)c1ccc[n+]([C@@H]2O[C@H](COP(=O)([O-])OP(=O)(O)OC[C@H]3O[C@@H](n4cnc5c(N)ncnc54)[C@H](O)[C@@H]3O)[C@@H](O)[C@H]2O)c1 [NAD, nicotinamide adenine dinucleotide, reference compound] |  |  |  |  |  |  |  |  |  |  | 66.3 | 2.8 | 63.5
